The results in this text go back to the supplement of paper PMC10849652.

Protein sequences, listed by entry. Tags and fused reporters are not part of them. Lines headed by an entry give the natural chain unless they say otherwise; changes in a name come on top.
UniProt Q13126: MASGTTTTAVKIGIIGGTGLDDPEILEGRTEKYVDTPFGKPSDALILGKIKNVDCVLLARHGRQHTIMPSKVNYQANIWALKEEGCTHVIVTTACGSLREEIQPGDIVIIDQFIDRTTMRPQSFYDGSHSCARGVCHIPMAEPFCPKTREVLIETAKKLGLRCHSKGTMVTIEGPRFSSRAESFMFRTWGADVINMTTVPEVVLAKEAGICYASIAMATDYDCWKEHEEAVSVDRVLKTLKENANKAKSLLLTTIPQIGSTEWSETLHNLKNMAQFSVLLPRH
UniProt Q9UKX2, whole entry, looked up: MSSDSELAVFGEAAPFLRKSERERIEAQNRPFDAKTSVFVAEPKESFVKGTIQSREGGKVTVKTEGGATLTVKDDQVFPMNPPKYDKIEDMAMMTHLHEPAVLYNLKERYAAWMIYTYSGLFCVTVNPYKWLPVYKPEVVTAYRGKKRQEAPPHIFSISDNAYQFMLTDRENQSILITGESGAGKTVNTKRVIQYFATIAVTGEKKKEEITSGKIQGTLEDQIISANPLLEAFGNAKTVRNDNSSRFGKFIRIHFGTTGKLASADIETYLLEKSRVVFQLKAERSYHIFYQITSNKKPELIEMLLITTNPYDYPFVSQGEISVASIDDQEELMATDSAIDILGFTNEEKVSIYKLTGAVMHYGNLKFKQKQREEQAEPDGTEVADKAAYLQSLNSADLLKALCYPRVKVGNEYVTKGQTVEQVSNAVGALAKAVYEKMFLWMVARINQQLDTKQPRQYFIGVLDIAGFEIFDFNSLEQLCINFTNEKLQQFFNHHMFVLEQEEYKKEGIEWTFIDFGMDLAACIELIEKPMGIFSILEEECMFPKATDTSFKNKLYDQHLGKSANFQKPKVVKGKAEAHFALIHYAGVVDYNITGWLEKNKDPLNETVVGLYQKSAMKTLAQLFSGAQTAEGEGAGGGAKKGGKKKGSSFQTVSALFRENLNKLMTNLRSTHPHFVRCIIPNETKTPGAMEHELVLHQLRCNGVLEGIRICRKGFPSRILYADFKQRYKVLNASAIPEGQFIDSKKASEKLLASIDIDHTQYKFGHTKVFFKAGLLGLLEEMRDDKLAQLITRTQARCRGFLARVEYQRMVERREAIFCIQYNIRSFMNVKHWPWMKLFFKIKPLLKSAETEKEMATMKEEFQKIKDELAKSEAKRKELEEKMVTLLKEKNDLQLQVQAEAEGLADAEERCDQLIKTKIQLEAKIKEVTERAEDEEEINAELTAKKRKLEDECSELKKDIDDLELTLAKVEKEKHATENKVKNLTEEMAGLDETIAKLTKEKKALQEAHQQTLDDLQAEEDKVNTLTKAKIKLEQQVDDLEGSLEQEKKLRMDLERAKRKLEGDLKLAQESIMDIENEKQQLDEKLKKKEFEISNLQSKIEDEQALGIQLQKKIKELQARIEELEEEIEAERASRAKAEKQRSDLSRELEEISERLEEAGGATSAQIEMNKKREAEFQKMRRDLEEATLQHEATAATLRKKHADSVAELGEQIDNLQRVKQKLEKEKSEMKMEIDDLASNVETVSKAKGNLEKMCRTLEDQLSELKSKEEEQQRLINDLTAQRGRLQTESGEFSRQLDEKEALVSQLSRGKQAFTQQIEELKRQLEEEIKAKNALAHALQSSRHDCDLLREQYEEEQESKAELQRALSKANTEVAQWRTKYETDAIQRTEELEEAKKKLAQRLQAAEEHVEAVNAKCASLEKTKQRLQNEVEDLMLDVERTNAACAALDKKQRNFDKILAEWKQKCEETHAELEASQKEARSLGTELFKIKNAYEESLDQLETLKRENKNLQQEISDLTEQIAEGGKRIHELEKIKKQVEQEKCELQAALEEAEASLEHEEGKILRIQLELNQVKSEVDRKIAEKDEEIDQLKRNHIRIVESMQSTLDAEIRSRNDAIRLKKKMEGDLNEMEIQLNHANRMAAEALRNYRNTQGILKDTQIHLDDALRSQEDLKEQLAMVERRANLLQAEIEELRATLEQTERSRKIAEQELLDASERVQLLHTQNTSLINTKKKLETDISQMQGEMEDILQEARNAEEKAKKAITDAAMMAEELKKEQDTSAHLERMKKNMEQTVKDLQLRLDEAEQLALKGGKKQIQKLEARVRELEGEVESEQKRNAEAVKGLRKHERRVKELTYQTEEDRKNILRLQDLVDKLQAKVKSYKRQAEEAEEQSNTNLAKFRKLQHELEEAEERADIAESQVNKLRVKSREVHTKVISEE
UniProt Q9UGC7: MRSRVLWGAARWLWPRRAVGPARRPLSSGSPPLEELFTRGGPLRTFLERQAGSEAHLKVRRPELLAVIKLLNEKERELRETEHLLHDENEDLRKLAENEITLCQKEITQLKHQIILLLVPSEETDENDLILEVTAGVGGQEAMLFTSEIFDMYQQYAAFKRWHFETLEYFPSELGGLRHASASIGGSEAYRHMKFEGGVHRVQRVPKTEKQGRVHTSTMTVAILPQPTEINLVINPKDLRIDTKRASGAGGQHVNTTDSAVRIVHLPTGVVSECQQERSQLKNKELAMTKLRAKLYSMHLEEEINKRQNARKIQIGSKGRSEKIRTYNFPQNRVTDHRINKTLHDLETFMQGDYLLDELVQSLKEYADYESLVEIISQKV
UniProt Q93083: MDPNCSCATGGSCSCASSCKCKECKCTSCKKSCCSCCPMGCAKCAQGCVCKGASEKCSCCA
UniProt Q9UJ68: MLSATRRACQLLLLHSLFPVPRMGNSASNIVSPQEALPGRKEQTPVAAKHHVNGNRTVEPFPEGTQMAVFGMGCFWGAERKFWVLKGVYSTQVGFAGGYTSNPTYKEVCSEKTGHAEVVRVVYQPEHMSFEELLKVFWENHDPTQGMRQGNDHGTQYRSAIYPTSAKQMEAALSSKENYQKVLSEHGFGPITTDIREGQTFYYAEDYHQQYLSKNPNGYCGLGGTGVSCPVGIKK
UniProt Q9BT17: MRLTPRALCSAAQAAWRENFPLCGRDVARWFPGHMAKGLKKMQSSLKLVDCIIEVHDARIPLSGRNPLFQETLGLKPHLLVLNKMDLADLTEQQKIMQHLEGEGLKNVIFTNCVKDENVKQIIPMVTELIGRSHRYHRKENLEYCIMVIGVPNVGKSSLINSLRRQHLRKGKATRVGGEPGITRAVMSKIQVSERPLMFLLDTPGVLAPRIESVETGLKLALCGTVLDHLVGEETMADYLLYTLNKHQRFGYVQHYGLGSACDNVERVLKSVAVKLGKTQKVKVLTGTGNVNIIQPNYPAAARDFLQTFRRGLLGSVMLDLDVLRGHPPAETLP
UniProt Q9BTC8: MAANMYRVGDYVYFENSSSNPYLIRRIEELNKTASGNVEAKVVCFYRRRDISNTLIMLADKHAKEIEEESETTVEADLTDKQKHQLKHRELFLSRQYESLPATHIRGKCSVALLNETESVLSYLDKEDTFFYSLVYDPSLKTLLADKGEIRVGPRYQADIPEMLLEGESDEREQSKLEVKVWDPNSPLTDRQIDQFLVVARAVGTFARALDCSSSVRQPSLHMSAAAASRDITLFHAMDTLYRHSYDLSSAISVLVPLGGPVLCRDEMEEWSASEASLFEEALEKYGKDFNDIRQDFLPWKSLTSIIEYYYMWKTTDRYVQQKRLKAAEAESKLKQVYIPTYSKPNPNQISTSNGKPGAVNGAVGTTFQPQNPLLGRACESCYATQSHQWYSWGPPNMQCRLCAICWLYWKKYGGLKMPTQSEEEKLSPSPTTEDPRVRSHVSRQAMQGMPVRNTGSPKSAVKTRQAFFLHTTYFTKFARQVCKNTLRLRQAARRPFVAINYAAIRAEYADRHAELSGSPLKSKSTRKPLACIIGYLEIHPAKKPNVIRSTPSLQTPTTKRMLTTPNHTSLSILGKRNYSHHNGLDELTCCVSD
UniProt Q9BQG0: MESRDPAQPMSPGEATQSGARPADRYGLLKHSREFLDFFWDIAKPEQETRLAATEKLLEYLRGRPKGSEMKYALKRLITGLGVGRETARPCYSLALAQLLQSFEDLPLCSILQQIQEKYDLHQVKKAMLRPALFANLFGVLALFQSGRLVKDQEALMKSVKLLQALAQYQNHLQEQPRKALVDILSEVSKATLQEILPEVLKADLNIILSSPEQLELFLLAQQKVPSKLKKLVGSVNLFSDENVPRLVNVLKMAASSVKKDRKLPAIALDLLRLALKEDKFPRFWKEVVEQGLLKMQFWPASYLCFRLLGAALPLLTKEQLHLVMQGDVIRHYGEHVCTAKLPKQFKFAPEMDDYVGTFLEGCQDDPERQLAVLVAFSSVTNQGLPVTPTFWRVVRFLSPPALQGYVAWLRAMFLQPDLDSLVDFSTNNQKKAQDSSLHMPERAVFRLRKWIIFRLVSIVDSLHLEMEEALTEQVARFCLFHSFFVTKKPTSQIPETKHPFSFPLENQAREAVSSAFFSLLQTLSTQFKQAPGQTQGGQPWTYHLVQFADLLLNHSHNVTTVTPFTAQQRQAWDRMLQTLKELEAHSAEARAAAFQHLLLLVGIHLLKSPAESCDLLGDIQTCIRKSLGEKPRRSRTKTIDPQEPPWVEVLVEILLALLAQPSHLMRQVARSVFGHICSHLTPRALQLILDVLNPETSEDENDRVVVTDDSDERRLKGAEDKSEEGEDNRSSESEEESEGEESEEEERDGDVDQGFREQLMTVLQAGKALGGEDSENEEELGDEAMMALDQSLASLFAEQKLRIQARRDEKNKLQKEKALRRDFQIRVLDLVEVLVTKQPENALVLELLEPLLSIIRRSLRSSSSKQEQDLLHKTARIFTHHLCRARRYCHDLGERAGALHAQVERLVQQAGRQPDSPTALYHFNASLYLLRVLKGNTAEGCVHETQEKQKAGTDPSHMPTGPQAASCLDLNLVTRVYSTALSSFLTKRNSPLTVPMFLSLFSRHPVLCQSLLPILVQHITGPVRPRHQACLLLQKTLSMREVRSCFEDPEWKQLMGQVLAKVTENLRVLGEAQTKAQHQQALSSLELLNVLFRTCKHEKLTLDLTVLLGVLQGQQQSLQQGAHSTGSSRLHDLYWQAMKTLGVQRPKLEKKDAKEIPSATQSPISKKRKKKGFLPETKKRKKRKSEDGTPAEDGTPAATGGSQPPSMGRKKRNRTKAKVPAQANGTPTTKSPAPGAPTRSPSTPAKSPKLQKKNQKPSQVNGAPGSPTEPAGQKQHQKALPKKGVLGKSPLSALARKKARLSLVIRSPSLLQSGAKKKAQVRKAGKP
UniProt Q9H6N6: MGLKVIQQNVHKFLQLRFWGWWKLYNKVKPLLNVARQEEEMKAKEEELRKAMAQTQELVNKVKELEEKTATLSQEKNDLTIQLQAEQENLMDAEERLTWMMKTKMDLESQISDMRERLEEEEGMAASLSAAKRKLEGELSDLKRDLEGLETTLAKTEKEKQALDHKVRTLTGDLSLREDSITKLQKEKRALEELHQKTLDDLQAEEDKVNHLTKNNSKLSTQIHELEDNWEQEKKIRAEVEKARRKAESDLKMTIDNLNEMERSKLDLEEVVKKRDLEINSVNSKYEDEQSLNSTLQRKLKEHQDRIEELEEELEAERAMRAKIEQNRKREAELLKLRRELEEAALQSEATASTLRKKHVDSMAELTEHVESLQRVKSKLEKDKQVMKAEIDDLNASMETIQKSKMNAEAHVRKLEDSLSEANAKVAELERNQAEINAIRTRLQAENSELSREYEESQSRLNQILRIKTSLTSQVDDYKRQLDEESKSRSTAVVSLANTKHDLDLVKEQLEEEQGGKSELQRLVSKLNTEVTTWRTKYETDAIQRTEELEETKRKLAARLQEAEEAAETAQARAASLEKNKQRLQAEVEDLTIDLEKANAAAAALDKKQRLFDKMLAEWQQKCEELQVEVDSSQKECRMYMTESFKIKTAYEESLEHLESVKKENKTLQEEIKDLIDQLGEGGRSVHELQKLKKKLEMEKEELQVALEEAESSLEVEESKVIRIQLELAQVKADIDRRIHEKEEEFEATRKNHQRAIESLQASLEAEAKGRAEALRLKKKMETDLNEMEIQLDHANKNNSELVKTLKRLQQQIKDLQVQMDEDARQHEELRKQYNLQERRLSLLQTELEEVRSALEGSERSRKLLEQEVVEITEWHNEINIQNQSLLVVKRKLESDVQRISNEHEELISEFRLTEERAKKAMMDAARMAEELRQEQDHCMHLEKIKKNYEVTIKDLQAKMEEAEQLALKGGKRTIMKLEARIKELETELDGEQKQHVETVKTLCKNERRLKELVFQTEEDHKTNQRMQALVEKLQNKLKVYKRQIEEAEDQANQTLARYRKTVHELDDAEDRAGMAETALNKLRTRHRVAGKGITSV
UniProt P03891, whole entry, looked up: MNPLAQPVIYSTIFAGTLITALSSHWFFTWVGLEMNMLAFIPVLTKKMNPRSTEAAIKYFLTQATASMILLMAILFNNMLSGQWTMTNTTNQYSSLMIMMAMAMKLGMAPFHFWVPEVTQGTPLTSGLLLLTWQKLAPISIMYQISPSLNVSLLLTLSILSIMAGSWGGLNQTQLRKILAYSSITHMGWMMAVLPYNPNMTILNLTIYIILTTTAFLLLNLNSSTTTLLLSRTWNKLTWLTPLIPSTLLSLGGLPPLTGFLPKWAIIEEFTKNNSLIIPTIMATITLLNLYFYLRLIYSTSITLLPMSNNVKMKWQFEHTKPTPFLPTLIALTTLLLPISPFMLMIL

Some of the results follow.

Compound in one assay: C[C@H](Nc1ncnc2nc[nH]c12)c1cc2cccc(Cl)c2c(=O)n1-c1ccccc1 [duvelisib]
Put plainly: log2 fold change, soluble protein after heating vs DMSO (PISA); higher = thermal stabilisation; K562 cells, 10 uM, 30 min; active = over 0.2 and 3.5 SD of the protein, either way, in both replicates (recomputed). In outline: (§1)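 K562 cells at 2×10^6 cells/mL were treated for 30 min with 10 μM compound, and aliquots were heated for 3 min over 48°C-58°C before pooling. Extraction used PBS with 0.5% NP-40 at 4°C, and soluble protein was the supernatant after 21,000xg for 90 min, measured by TMTpro 16plex LC-MS/MS with channel sums equalised. Thermal stability values, relative to control samples and from duplicates, are log2 fold changes.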
Take MT-CO3 (UniProt P00414): the log2 fold change was inactive: 0.231.
Still for that read-out and setting: with MYL6 (UniProt G3V1V0) the figure was inactive: -0.025; with MTAP isoform 2 (UniProt Q13126), inactive: 0.108.
For MYH2 (UniProt Q9UKX2), the log2 fold change is inactive: 1.7.
MTRF1L (UniProt Q9UGC7): the log2 fold change is inactive: 0.043.
Still for that read-out and setting: with MT1L (UniProt Q93083) the figure was inactive: -0.108.
The same measure, in the same setting: with MTHFSD (UniProt Q2M296) the figure was inactive: -0.118; with MTMR9 (UniProt Q96QG7), inactive: 0.022.
On the same count and under the same terms, for MSRA (UniProt Q9UJ68) the value was inactive: 0.128; for MTG1 (UniProt Q9BT17), inactive: 0.084; for MTIF3 (UniProt Q9H2K0), inactive: 0.027.
Consider MTHFD2L (UniProt Q9H903), for which the log2 fold change was inactive: 0.241.
As for MYL3 (UniProt P08590), the log2 fold change was inactive: 0.015.
For the target MTA3 (UniProt Q9BTC8), the log2 fold change is inactive: 0.135.
Still for that read-out and setting: for MTERF3 (UniProt Q96E29) the value was inactive: 0.091; for MYBBP1A isoform 2 (UniProt Q9BQG0), inactive: -0.06.
The same measure, in the same setting: with MYH6 (UniProt P13533) the figure was inactive: -0.025; with MTHFD1L (UniProt B7ZM99), inactive: 0.158.

Compound in another assay: Cc1cc(Nc2cc(CN3CCOCC3)c3nc(C)c(Cc4ccc(Cl)cc4F)n3n2)n[nH]1 [gandotinib]
The description is as above. In outline:
as §1
As for MYO19 (UniProt Q96H55), the log2 fold change was inactive: -0.081.
Same read-out and setting: with MYH16 (UniProt Q9H6N6) the figure was inactive: -0.279; with MTAP isoform 2 (UniProt Q13126), inactive: 0.065; with MTRF1L (UniProt Q9UGC7), inactive: 0.04.
On the same count and under the same terms, with MT1L (UniProt Q93083) the figure was inactive: -0.293; with MYH3 (UniProt P11055), inactive: -0.063.
Same read-out and setting: with MTMR9 (UniProt Q96QG7) the figure was inactive: 0.015.
Regarding MYLK (UniProt Q15746), the log2 fold change is inactive: -0.018.
Same read-out and setting: for MTG1 (UniProt Q9BT17) the value was inactive: 0.148; for MTIF3 (UniProt Q9H2K0), inactive: 0.045.
The same measure, in the same setting: for MYL3 (UniProt P08590) the value was inactive: -0.025.
Still for that read-out and setting: with MTA3 (UniProt Q9BTC8) the figure was inactive: -0.054.
For the target MTERF3 (UniProt Q96E29), the log2 fold change was inactive: 0.076.
Same read-out and setting: with MYBBP1A isoform 2 (UniProt Q9BQG0) the figure was inactive: 0.003; with MYH6 (UniProt P13533), inactive: 0.038; with MT-ND2 (UniProt P03891), inactive: -0.064.
For the target MYO1B (UniProt O43795), the log2 fold change is inactive: 0.02.
Same read-out and setting: for MTHFD1, A0A384N5Y3 the value was inactive: -0.036; for MTHFD1L (UniProt B7ZM99), inactive: -0.029.
